# The other results are listed elsewhere or left out.
# The chains behind the UniProt entries cited, without tags or fusion partners. Where a name states a change or a piece, a line headed by the entry shows the natural chain unless it says otherwise.
# UniProt P00387: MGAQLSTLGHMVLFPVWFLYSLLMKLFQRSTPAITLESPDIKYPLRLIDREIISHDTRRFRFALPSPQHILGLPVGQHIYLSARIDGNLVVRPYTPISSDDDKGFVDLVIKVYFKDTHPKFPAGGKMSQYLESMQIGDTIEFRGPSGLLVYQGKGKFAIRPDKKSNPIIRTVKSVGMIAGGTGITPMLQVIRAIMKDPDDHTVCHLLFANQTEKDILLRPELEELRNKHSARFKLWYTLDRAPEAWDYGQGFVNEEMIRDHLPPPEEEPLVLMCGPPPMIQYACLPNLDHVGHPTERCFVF
# UniProt P49674: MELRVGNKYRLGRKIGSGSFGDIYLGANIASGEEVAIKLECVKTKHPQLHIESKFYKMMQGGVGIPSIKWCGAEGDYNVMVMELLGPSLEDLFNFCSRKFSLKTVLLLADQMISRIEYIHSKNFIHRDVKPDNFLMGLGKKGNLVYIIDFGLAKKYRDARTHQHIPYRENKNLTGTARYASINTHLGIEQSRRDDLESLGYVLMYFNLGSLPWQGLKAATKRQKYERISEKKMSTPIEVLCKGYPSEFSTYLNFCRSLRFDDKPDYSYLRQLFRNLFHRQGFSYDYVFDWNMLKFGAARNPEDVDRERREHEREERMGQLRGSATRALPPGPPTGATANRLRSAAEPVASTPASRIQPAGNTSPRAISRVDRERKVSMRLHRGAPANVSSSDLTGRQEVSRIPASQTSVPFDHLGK
# UniProt P00156: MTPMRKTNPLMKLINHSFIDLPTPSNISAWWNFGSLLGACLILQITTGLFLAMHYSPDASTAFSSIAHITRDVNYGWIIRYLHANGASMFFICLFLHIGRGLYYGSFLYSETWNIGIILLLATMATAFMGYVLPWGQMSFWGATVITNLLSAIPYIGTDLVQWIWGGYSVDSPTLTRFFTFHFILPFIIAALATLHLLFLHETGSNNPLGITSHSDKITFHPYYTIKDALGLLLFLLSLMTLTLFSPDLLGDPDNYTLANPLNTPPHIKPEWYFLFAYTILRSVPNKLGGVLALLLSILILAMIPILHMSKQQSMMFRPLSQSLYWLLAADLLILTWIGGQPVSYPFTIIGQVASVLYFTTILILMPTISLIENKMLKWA
# UniProt Q9BQ39: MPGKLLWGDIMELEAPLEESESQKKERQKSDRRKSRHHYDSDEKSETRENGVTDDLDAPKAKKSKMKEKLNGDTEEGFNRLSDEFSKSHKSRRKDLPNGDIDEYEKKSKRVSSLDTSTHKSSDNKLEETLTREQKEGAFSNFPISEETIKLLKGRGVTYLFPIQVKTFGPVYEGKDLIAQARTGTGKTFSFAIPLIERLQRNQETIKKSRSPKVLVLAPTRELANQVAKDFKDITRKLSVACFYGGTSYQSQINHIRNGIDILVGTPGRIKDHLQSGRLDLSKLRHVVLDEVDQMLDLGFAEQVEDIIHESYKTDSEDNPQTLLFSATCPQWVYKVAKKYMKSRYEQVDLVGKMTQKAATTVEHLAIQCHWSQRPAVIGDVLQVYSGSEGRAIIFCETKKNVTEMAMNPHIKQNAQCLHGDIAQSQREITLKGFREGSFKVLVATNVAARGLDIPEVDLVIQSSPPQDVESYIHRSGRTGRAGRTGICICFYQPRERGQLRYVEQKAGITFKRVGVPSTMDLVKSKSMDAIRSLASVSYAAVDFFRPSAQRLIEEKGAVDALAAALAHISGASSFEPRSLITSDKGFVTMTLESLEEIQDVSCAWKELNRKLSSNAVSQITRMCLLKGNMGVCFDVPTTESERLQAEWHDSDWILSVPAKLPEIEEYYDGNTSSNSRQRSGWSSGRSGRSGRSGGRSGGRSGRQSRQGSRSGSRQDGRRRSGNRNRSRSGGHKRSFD
# UniProt Q99543: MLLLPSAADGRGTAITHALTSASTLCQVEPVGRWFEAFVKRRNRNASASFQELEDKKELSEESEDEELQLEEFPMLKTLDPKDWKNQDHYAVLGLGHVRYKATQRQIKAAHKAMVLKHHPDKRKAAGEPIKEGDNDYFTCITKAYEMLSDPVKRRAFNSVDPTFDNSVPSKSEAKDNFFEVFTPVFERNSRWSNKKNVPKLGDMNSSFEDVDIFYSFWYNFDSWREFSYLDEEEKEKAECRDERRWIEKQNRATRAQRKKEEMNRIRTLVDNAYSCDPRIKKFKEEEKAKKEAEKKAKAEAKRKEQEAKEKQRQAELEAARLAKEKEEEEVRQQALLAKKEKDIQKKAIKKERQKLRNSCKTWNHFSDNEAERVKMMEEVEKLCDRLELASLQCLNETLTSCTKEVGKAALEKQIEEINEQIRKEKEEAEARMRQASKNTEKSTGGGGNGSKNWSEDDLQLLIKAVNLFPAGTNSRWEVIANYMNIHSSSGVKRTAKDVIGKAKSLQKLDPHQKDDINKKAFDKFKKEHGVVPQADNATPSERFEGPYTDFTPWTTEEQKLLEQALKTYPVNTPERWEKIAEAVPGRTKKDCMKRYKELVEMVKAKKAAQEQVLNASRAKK
# UniProt P30046: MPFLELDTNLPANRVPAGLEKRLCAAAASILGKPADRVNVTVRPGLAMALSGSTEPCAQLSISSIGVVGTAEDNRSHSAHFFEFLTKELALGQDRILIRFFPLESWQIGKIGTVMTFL
# UniProt Q9NUI1: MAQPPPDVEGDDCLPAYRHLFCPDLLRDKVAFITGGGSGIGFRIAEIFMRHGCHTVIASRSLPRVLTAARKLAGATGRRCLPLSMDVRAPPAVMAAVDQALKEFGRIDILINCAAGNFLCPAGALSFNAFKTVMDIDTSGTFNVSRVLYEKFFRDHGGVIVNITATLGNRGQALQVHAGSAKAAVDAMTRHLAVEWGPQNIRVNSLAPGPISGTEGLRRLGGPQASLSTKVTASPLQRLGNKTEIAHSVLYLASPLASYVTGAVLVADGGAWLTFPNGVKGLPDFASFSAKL
# UniProt Q9BTC0, whole entry: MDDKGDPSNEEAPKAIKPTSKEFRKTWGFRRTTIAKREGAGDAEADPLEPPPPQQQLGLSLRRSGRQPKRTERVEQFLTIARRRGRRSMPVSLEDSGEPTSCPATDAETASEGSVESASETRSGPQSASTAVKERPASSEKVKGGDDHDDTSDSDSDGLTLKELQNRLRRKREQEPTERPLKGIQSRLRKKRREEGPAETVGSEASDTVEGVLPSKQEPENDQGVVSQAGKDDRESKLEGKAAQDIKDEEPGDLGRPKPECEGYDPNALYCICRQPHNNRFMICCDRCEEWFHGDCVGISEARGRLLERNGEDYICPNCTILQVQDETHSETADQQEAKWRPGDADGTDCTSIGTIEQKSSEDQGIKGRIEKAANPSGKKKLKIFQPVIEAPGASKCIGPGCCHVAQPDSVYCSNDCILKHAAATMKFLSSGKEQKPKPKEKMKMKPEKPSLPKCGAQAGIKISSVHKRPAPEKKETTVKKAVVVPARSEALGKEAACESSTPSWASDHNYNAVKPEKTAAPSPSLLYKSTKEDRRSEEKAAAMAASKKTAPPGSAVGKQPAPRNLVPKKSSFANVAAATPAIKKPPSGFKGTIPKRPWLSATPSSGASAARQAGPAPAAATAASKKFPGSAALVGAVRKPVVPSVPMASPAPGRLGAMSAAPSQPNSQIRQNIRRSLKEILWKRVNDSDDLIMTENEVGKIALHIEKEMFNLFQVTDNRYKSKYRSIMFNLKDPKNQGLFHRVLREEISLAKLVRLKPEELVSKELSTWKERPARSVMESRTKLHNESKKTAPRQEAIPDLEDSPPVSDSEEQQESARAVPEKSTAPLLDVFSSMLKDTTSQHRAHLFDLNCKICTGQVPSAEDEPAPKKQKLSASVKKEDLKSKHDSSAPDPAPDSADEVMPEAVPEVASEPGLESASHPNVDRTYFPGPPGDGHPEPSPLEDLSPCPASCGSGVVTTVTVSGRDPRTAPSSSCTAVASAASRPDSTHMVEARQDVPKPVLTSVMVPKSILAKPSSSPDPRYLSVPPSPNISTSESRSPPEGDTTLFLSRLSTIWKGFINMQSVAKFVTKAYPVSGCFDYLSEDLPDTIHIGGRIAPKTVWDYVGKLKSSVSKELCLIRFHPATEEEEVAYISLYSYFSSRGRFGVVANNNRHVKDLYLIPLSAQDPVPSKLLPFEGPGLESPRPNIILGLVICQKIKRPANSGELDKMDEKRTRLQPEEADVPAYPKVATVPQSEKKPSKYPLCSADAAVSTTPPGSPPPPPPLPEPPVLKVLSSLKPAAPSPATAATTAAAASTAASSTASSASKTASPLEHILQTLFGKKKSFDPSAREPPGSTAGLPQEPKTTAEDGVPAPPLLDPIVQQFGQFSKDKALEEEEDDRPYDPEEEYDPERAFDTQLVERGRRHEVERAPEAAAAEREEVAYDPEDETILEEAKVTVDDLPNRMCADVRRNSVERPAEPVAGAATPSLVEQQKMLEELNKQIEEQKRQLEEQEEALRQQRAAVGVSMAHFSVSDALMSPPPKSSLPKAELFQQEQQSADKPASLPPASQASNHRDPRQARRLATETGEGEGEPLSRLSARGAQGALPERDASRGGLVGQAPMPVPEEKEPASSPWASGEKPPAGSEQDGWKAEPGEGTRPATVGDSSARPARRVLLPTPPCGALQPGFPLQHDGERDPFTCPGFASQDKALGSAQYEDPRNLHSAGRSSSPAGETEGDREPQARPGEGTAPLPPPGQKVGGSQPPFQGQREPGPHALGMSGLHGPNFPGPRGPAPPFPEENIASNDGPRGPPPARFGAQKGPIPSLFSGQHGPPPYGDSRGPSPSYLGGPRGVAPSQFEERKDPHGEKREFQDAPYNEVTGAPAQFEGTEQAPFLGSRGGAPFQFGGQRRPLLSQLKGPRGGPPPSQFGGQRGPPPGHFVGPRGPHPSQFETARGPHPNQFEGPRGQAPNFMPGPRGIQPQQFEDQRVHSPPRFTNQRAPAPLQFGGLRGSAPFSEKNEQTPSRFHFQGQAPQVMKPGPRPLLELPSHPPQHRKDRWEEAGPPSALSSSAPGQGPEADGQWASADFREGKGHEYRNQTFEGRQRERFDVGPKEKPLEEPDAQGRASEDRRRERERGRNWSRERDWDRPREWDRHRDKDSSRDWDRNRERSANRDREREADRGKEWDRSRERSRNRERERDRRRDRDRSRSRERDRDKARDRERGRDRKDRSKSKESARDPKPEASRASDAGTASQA
# UniProt Q14203, whole entry: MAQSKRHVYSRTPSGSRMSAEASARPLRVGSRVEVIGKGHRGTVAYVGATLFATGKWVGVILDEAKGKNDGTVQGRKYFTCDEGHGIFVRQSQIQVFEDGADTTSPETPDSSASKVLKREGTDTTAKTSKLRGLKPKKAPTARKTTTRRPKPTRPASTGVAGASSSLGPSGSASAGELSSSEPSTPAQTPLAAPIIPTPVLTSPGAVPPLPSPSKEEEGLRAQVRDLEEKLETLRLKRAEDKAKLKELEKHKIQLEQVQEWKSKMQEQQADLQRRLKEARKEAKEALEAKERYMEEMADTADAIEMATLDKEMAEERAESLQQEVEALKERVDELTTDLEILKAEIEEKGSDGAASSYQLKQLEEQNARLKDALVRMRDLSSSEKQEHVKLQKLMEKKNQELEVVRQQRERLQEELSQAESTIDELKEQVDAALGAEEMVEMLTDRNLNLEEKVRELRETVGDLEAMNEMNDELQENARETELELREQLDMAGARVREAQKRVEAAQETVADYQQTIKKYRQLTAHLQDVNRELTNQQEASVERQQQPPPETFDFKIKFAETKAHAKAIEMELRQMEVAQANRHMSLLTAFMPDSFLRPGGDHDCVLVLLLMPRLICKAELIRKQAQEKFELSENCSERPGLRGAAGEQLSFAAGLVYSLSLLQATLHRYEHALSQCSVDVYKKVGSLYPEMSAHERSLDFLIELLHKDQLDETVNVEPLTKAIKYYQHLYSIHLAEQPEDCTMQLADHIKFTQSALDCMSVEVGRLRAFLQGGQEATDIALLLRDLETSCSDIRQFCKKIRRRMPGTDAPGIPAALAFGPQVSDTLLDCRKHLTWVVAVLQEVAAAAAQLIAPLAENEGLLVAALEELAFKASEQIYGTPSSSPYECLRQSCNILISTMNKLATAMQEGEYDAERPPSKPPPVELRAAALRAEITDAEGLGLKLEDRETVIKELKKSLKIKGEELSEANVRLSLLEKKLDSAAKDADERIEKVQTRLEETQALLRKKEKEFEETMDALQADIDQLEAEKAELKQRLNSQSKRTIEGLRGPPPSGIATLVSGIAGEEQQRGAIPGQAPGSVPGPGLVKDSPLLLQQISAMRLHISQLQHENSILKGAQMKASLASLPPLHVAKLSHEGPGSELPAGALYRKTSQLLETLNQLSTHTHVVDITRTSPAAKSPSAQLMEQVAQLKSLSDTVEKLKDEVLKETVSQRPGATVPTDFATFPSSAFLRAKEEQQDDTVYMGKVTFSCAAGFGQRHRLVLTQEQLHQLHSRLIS
# UniProt P67870, whole entry: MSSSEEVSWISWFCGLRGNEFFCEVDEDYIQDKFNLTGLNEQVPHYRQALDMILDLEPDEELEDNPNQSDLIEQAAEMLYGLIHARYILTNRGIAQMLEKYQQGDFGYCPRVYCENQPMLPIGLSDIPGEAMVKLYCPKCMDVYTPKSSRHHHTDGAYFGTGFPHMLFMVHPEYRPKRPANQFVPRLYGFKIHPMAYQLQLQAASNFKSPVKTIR
# Compound: COc1ccc(Cn2ccc3cc(C)c(C(=O)NO)cc32)cc1
# Assay: dose-dependent thermal stabilisation call (2D-TPP, DLPTP, 10% FDR) (binary (1 = stabilised)); higher = stabilised by the compound
# Conditions: system: HL-60 intact cells; concentration range 0.04-10 µM
# Method: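 2D thermal proteome profiling in intact HL-60 cells treated with BRD-3811 (0, 0.04, 0.29, 2, 10 uM) for 90 min at 37 C, then heated 3 min at one of 12 temperatures (42-63.9 C). Soluble protein was quantified by TMT10 MS. The value is the DLPTP call of the paper: dose-dependent thermal stabilisation over all temperatures at 10% FDR (F-test of a dose-response against a flat model); one experiment, one call per tested protein.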
row,Target,dose-dependent thermal stabilisation call
1,DIP2A (UniProt Q14689),inactive: 0
2,CYB5R3 (UniProt P00387),active: 1
3,CSNK1E (UniProt P49674),inactive: 0
4,CYTB (UniProt P00156),inactive: 0
5,DAXX (UniProt Q9UER7),inactive: 0
6,DDX50 (UniProt Q9BQ39),inactive: 0
7,DNAJC2 (UniProt Q99543),inactive: 0
8,DNAJA1 (UniProt P31689),inactive: 0
9,DDT (UniProt P30046),inactive: 0
10,CTBS (UniProt Q01459),inactive: 0
11,CWC22 (UniProt Q9HCG8),inactive: 0
12,CYP20A1 (UniProt Q6UW02),inactive: 0
13,DNAJB11 (UniProt Q9UBS4),inactive: 0
14,DNMBP (UniProt Q6XZF7),inactive: 0
15,CTDSPL2 (UniProt Q05D32),inactive: 0
16,DCP1B (UniProt Q8IZD4),inactive: 0
17,DLG1 (UniProt Q12959),inactive: 0
18,CUGBP2 (UniProt O95319),inactive: 0

row,Target,dose-dependent thermal stabilisation call
1,DOLPP1 (UniProt Q86YN1),inactive: 0
2,DECR2 (UniProt Q9NUI1),inactive: 0
3,DIDO1 (UniProt Q9BTC0),inactive: 0
4,DDX17 (UniProt Q92841),inactive: 0
5,DGKH (UniProt Q86XP1),inactive: 0
6,DHX37 (UniProt Q8IY37),inactive: 0
7,DNAJC12 (UniProt Q9UKB3),inactive: 0
8,DGKZ (UniProt Q13574),inactive: 0
9,DENND4A (UniProt Q7Z401),inactive: 0
10,DOPEY2 (UniProt Q9Y3R5),inactive: 0
11,DDX41 (UniProt Q9UJV9),inactive: 0
12,CUGBP1 (UniProt Q92879),inactive: 0
13,DNAJC3 (UniProt Q13217),inactive: 0
14,DCTN1 (UniProt Q14203),inactive: 0
15,CTBP2 (UniProt P56545),inactive: 0
16,DDA1 (UniProt Q9BW61),inactive: 0
17,CTF8 (UniProt P0CG13),inactive: 0
18,CSNK2B (UniProt P67870),inactive: 0

# A few values from the entries so far:
# Entry of CTF8 (UniProt P0CG13) under dose-dependent thermal stabilisation call: inactive: 0
# Entry of DDA1 (UniProt Q9BW61) under dose-dependent thermal stabilisation call: inactive: 0

# Reference: the supplement of paper PMC7666118
